Results are given in words; binding and its absence hold for the method and conditions named. For some assays here: A result given as binding can be weak or reduced; the word gives no strength. For some assays here: Binding seen in cells or lysates may run through a third protein. For some assays here: Sequences can lack the tags named with a protein.
Assays:
[1] = biological target: T1, Fluorescently labelled ZFPL1 (MST) (human) (UniProt O95159); assay: MST; fluorescently labelled ZFPL1 mixed with varying concentrations of ASS1; Monolith NT.115; buffer pH 7.4, 1 mM MgCl2, 3 mM KCl, 150 mM NaCl, 0.05% Tween-20; also with Salvianolic acid B added; both purified
T1 sequence (chain, fluorescent label (dye and site not stated)): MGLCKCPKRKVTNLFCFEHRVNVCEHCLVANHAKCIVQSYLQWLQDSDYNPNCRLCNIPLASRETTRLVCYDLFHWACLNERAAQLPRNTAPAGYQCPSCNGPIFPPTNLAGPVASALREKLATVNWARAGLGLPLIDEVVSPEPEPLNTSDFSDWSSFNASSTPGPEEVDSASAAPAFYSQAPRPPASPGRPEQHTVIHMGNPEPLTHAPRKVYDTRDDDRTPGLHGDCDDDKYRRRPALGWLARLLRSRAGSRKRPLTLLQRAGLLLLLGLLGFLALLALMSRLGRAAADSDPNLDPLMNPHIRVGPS

By UniProt entry, the sequences of proteins in these tests, tags left out. Where a name states a change or a piece, a line headed by the entry shows the natural chain unless it says otherwise.
UniProt P00966: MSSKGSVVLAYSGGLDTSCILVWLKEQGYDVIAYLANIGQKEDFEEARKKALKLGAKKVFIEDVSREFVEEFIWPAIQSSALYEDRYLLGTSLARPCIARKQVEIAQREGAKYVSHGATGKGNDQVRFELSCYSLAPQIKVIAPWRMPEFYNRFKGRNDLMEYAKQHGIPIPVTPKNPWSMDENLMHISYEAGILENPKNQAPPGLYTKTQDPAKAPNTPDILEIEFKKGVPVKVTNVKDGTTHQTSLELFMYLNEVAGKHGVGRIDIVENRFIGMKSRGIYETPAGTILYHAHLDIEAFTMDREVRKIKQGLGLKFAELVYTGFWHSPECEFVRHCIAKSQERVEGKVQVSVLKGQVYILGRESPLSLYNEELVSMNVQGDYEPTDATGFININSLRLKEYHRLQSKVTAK

[2] = biological target: T2, Flag-tagged ZFPL1-WT (zinc finger protein-like 1) (human) (UniProt O95159); assay: co-IP; HEK293T cells transfected with His-tagged ASS1 (WT or Mut) and Flag-tagged ZFPL1 (WT or Mut); IP kit, immunoblot
T2 sequence: T1 sequence (chain, fluorescent label (dye and site not stated))

Q: With “ASS1-K57^mut (MST) (from UniProt P00966)” as the substance, how does the binding [1] read?
A: The binding was “binds”.

Q: Which binding [2] does the source give for “His-tagged ASS1-Mut (mutated in the predicted ZFPL1-interaction region) (from UniProt P00966)” here?
A: The binding was “no binding”.

From article PMC12697865, “ZFPL1 Promotes Colorectal Cancer Progression by Stabilizing ASS1 to Drive the Urea Cycle and M2 Macrophage‐Mediated Metastatic Colonization” (Advanced Science, 2025)
